Results of single-concentration screens

Sequences of proteins named here, by UniProt entry; tags and fusion partners are left off. Residues count along the entry.
UniProt A4I591, 1-473: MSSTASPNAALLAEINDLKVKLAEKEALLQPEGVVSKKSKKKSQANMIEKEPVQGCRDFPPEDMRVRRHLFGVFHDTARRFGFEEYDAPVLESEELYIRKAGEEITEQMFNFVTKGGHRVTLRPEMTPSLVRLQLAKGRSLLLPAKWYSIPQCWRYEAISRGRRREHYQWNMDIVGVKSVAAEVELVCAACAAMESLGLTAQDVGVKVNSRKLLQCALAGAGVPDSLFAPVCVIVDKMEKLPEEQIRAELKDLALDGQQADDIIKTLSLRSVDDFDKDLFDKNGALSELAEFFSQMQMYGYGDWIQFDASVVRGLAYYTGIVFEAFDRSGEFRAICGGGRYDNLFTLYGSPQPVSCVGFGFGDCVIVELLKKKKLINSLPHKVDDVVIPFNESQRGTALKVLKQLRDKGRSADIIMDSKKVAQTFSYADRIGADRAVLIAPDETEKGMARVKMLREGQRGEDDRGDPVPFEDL
UniProt I6X8D2, whole entry: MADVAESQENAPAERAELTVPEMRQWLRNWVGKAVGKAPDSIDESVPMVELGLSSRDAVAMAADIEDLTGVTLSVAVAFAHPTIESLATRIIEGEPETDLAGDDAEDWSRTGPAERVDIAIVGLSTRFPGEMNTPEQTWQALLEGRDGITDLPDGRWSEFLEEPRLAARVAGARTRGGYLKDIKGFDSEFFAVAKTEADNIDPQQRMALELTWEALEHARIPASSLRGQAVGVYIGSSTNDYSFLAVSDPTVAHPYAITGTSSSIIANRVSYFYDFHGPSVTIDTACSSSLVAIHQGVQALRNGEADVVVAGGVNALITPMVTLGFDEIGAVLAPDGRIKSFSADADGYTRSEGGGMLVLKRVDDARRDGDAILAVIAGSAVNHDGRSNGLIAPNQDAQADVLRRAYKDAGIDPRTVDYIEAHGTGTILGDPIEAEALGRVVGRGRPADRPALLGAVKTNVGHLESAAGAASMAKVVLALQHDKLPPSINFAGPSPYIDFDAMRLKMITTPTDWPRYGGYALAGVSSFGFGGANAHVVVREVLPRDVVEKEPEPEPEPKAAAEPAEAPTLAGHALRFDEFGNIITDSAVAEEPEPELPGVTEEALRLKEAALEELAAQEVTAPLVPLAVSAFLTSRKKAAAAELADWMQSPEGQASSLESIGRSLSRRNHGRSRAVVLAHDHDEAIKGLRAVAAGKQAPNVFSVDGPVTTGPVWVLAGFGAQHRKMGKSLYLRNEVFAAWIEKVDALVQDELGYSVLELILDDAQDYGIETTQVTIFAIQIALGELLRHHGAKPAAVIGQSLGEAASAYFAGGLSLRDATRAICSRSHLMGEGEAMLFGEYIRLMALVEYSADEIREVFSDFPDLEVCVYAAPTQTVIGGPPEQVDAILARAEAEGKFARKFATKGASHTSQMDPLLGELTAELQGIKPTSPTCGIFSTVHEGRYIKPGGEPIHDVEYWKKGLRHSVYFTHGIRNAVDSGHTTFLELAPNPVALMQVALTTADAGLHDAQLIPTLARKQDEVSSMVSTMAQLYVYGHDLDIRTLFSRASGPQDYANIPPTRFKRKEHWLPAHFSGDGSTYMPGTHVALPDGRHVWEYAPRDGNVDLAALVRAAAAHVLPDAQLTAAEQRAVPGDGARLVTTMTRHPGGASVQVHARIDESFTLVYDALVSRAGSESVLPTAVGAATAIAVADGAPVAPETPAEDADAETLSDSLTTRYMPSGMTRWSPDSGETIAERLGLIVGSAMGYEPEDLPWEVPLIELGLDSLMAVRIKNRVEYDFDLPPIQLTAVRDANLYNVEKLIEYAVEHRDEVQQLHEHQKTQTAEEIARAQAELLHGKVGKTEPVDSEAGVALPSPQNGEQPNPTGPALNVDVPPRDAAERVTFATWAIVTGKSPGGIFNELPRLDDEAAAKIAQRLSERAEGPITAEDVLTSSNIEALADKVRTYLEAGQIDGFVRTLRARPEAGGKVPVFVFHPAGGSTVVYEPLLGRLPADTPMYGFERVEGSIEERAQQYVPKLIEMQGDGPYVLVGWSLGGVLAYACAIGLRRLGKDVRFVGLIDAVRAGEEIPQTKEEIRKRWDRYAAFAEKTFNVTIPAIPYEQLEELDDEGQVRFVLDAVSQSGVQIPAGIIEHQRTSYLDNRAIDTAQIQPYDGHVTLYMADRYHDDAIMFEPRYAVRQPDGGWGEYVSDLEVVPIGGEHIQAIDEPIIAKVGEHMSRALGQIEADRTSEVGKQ

Leishmania in macrophages: 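Cell assay of Leishmania donovani living inside macrophages; the read-out is not stated. Compounds at 30 µM. The record gives no direction; compounds that gave an IC50 in retests scored well above the rest, so higher reads as stronger inhibition. About 69,000 compounds were tested under these conditions; 1.5% (about 1,000) showed 50% or more at least once.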
LiHisRS: 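Histidine-tRNA ligase, Leishmania infantum (UniProt A4I591). Enzyme assay of histidyl-tRNA synthetase; the read-out is not stated. Concentration: 30 µM. The record gives no direction; compounds that gave an IC50 in retests scored well above the rest, so higher reads as stronger inhibition. The assay is labelled LdHisRS but filed under L. infantum. Of about 69,000 compounds tested this way, about 410 (0.6%) reached 50% or more in at least one test.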
Pks13 thioesterase: 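Enzyme assay of the thioesterase domain of polyketide synthase 13; the read-out is not stated. Target: Polyketide synthase Pks13, Mycobacterium tuberculosis (UniProt I6X8D2). Compounds at 30 µM. The record gives no direction; the compounds picked for IC50 retests had high values, so higher reads as stronger inhibition. Of about 67,000 compounds tested this way, about 300 (0.46%) reached 50% or more in at least one test.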

The filed quantity is “Percent Effect” (%). The record does not define 0% and 100%; most values in the screen are far below 50% and negative numbers occur (in some assays of this library far below -100). The compounds are a random part of those screened. Two or more numbers in one place are separate tests of the same structure; such repeats can differ widely.

CN1CCC(N2CCC(c3ccccc3C(=O)O)C2)CC1 (stereo not shown) read Leishmania in macrophages: 22.93%; LiHisRS: 6.667%; Pks13 thioesterase: -28.21%. CCc1nsc(NC2CC(=O)N(C3CC3)C2)n1 (stereo not shown) read Leishmania in macrophages: 25.34%; LiHisRS: 8.065%; Pks13 thioesterase: 5.496%. With CCc1cn[nH]c1C1CCN(C(=O)c2cc(C(C)=O)c(C)[nH]c2=O)CC1 the screen gave Leishmania in macrophages: 39.75%; LiHisRS: 10.99%; Pks13 thioesterase: -14.26%. [H][C@@]12CNC[C@]1([H])N(C(=O)c1ccoc1)CCO2 gave Leishmania in macrophages: 5.524%. O=S1(=O)C[C@@H]2[C@H](C1)N(Cc1cc(F)cc(Cl)c1)CCN2CCO read LiHisRS: 0%; Pks13 thioesterase: -13.76%. For c1ccc(-c2nc(CCNc3nnc(C4CCC4)o3)no2)cc1 the result was Leishmania in macrophages: -29.59%; LiHisRS: 16.39%; Pks13 thioesterase: 1.533%. With [H][C@]12CC[C@]([H])(CN(C(=O)c3ccc(N)nc3)C1)N(Cc1ccccc1)C2 the screen gave Leishmania in macrophages: 19.02%. Result for Cc1nc(CN2CCN(c3ccc4nncn4n3)C(C)C2)oc1C (stereo not shown) was Leishmania in macrophages: -2.664%; LiHisRS: 3.478%; Pks13 thioesterase: -9.434%.

Result for CCOCC1CN(Cc2ccc(F)cc2)Cc2nn(C)cc21 (stereo not shown) was LiHisRS: 10.91%; Pks13 thioesterase: 3.469%. For O=C1NCC2(CCCN(C(=O)Nc3ccc4occc4c3)CC2)O1 (stereo not shown) the result was Leishmania in macrophages: 4.433%; LiHisRS: 8.197%; Pks13 thioesterase: 7.389%. With O=C(Cc1cccs1)N1CCC(O)(CN2CCc3ccccc3C2)C1 (stereo not shown) the screen gave Leishmania in macrophages: -5.048% and 8.372%; LiHisRS: 13.04%; Pks13 thioesterase: 18.19%. With NC(CC1CCCC1)c1ccccc1 (stereo not shown) the screen gave LiHisRS: 12.77%; Pks13 thioesterase: -16.87%. With Cc1n[nH]c(C)c1CCN(C)C(=O)C(c1cccnc1)N1CCOCC1 (stereo not shown) the screen gave Leishmania in macrophages: 38.14%; LiHisRS: 13.22%; Pks13 thioesterase: -18.77%. Cc1cc(CN2CCc3c(CNc4ncccn4)cncc3C2)oc1C.Cl.Cl gave Leishmania in macrophages: 0.562%. CN1CCC(C2CCN(Cc3cccc(-n4cccn4)c3)CC2)C1 (stereo not shown) read Leishmania in macrophages: 43.04%; LiHisRS: 34.41%; Pks13 thioesterase: -31.4%. With COc1ccc(C2CCN(Cc3cscn3)CC2)cc1 the screen gave Leishmania in macrophages: 1.952%; LiHisRS: 5.357%; Pks13 thioesterase: -31.31%.

With O=C(CC1CN(Cc2ccccc2)CCO1)Nc1ccccc1F (stereo not shown) the screen gave Leishmania in macrophages: 21.01%; LiHisRS: 21.15%; Pks13 thioesterase: -7.962%. CN(C)Cc1cc(C2CCN(C(=O)C3CCCNC3)CC2)nn1C.Cl (stereo not shown) read Leishmania in macrophages: 37.51%. COc1ccncc1NC(=O)c1[nH]nc(C(C)C)c1Br read Leishmania in macrophages: 16.78%; LiHisRS: 21.13%; Pks13 thioesterase: -43.37%. For COCC1CN(C(=O)C2=CCCCC2)Cc2cnn(CC3CC3)c21 (stereo not shown) the result was Leishmania in macrophages: -9.114%; LiHisRS: 20.39%; Pks13 thioesterase: -13.43%. With CN(C)C(=O)N1CCCC(C(=O)N(C)Cc2cnc(N)nc2)C1 (stereo not shown) the screen gave Leishmania in macrophages: -17.9%; LiHisRS: 15.5%. COCCO[C@H]1CCN(C(=O)c2cccnc2)[C@H]1Cc1cnn(C)c1 read LiHisRS: 17.28%; Pks13 thioesterase: 4.034%. Result for Cn1cc(C(=O)NCC2CCN(C(=O)NC3CCCCC3)CC2)cn1 was Leishmania in macrophages: 7.069%; LiHisRS: 15.79%; Pks13 thioesterase: 2.241%. For CCCN(Cc1nnnn1C1CC1)CC1COc2ccccc2O1 (stereo not shown) the result was Leishmania in macrophages: 7.939%; LiHisRS: 21.24%; Pks13 thioesterase: 4.152%.

Result for Cn1c(=O)oc2ccc(S(=O)(=O)N3CCC(c4ccccc4)C3)cc21 (stereo not shown) was Leishmania in macrophages: -4.012%; LiHisRS: 1.786%; Pks13 thioesterase: 3.653%. Result for CCc1ccc(C(=O)NC2CCc3nc(C)cn3C2)o1 (stereo not shown) was Leishmania in macrophages: 22.68%; LiHisRS: 7.143%; Pks13 thioesterase: -12.87%. CC(Cn1cccn1)NC(=O)NCc1cccs1 (stereo not shown) gave Leishmania in macrophages: -7.608%; LiHisRS: 17.57%. O=C(NC[C@H]1OC[C@@H](NC(=O)C2CCCC2)[C@@H]1O)c1ccncc1 read Leishmania in macrophages: -14.57%; LiHisRS: -5.405%; Pks13 thioesterase: 23.18%.

The first 3 entries again:

* CN1CCC(N2CCC(c3ccccc3C(=O)O)C2)CC1 (stereo not shown) | Leishmania in macrophages: 22.93%; LiHisRS: 6.667%; Pks13 thioesterase: -28.21%
* CCc1nsc(NC2CC(=O)N(C3CC3)C2)n1 (stereo not shown) | Leishmania in macrophages: 25.34%; LiHisRS: 8.065%; Pks13 thioesterase: 5.496%
* CCc1cn[nH]c1C1CCN(C(=O)c2cc(C(C)=O)c(C)[nH]c2=O)CC1 | Leishmania in macrophages: 39.75%; LiHisRS: 10.99%; Pks13 thioesterase: -14.26%

Data taken from ChEMBL document CHEMBL3988442, “University of Dundee, Small-Polar-MMV Screening Library” (2021).